Paper PMC7719709
Results are given in words; binding and its absence hold for the method and conditions named. In cells and extracts the contact can be indirect. Some binding calls cover weakened binding; strength is not graded here. For some assays here: Tags and fused reporters may be left off the sequences shown.

Sequences of proteins named here, by UniProt entry; tags and fusion partners are left off.
UniProt Q99728: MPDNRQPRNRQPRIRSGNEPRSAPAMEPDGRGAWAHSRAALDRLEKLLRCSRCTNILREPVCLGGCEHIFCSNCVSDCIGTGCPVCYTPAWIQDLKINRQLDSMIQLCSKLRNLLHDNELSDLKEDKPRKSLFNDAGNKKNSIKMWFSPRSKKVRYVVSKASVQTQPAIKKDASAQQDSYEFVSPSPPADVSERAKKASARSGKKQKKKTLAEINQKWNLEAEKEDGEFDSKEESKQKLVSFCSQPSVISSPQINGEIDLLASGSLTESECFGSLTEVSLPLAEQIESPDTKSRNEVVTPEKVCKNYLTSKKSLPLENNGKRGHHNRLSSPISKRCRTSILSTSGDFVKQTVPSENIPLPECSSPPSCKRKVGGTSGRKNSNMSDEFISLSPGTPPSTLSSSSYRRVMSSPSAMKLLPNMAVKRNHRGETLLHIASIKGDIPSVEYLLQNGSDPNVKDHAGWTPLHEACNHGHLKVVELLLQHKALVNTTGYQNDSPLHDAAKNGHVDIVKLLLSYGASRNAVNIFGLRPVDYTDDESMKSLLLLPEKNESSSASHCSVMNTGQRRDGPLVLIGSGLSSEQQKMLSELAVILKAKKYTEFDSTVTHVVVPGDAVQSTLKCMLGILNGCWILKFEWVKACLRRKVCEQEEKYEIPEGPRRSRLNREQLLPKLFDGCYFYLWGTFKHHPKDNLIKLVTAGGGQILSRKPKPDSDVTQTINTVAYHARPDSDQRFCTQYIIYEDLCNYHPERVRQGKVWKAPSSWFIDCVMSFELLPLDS
UniProt P09874: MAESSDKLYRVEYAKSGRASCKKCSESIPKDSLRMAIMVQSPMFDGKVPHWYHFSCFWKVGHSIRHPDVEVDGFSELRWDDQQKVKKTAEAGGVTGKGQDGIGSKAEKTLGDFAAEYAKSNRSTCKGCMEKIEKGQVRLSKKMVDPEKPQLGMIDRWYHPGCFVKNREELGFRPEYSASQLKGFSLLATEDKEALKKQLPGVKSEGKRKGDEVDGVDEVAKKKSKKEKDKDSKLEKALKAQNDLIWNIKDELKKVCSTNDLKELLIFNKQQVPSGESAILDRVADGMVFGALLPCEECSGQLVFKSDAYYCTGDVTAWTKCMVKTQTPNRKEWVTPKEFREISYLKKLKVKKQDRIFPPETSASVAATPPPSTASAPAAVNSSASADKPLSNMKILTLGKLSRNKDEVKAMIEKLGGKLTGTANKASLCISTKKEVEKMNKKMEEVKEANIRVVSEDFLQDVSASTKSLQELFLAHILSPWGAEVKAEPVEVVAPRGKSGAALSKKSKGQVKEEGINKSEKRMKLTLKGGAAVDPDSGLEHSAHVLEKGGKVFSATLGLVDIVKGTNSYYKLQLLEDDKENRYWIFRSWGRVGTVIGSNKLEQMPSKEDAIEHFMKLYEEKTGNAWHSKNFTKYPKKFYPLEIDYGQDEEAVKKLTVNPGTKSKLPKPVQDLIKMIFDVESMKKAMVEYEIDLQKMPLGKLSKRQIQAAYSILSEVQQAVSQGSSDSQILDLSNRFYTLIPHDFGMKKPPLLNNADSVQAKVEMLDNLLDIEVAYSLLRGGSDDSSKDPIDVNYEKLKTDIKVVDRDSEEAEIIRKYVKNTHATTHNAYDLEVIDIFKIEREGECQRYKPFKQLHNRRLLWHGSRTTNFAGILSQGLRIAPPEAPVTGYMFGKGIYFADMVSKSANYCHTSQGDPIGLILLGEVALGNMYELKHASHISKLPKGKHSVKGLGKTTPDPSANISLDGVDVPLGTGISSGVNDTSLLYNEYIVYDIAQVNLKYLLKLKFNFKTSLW

Assays:
[1] = target: BARD1 tagged with a turboGFP (UniProt Q99728); assay: co-IP; anti-turboGFP immunoprecipitation from HEK293T cells transfected with BARD1–turboGFP; cells untreated or treated with MMS, UV or cisplatin for 3 h
FLAG-tagged HLTF (human) = target: T1, FLAG-tagged HLTF (human) (UniProt Q14527); assay: co-IP; anti-FLAG immunoprecipitation from lysates of HEK293T cells transfected with FLAG–HLTF or its constructs (with BARD1–turboGFP co-transfected in Fig. 1c); immunoblotting; cells untreated or treated with 1.2 mM MMS, 60 J/m^2 UV or 5 μM cisplatin for 3 h
T1 sequence: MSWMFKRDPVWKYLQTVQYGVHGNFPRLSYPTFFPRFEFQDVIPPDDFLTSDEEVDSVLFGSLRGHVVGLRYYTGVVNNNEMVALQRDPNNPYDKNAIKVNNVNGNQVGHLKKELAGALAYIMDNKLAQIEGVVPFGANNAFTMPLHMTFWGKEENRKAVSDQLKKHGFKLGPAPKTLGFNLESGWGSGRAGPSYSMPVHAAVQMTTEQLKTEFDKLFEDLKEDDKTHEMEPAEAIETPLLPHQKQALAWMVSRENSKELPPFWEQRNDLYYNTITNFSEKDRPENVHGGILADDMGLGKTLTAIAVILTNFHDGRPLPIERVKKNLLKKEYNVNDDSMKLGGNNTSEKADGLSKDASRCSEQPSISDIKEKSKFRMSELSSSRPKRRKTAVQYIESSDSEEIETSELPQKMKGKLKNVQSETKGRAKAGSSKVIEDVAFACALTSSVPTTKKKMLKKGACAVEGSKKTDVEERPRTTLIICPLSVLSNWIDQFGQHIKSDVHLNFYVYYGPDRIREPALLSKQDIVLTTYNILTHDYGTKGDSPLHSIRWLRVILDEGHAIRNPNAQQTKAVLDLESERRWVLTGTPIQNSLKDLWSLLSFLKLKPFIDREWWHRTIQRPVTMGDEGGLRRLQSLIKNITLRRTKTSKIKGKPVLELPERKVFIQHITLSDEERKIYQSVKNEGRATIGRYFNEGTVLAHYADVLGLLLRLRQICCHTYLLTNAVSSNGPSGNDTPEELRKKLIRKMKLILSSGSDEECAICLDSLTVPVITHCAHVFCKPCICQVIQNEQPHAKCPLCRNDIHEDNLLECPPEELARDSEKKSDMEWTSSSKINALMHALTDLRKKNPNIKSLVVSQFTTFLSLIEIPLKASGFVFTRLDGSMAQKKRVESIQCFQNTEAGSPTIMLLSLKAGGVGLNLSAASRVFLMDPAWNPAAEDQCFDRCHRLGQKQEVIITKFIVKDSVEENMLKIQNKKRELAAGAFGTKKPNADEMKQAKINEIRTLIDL

binding [1]: binds
binding (FLAG-tagged HLTF (human)): binds
Substance: PARP1 (endogenous) (from UniProt P09874 1-1014)
